PubChem BioAssay AID504847 (National Center for Advancing Translational Sciences (NCATS), 2011)
Where “and” joins values, the source holds several entries; their conditions need not be identical. Equal entries are not always repeated. Out of some 400,000 compounds screened, about 3,700 (0.93%) were called active. The inconclusive results got no clear call from the source; some entries with a clear call stand among them for comparison. The call rests on the fitted dose curve; in most records, active means well fitted inhibition curve with a large enough effect; inconclusive means small, poorly fitted or top-dose-only effect, or another doubt; inactive means no such curve, though single readings can be large or run the other way. A potency beside an inconclusive call is a rough fit, not a confirmed value.

By UniProt entry, the sequences of proteins in these tests, tags left out.
UniProt P11473, whole entry, looked up: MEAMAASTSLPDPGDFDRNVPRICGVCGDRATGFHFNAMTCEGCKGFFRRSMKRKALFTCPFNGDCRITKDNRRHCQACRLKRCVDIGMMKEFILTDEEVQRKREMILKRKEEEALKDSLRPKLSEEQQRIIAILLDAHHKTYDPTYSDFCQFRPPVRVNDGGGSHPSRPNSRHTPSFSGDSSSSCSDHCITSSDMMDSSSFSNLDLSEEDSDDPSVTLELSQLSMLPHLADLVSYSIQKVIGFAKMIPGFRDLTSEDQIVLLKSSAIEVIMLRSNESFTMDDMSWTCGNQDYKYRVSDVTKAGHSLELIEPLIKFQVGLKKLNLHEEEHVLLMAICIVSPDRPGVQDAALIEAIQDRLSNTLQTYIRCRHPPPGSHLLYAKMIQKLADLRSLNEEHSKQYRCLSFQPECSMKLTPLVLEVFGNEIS

Biological target: Vitamin D3 receptor (Homo sapiens) (UniProt P11473)
Assay: Inhibitors of the vitamin D receptor (VDR): qHTS
Details: VDR-SRC2-3 peptide fluorescence polarization, 2 h; max response, negative = inhibition: hits give low values
Description: The vitamin D receptor (VDR) is a ligand-activated transcription factor and is partially responsible for the regulation of the endocrine system. This includes the transcriptional regulation of genes involved in the production of the parathyroid hormone (PTH) and the regulation of the blood calcium level. High levels of PHT can cause hypercalcemia in the case of primary and tertiary hyperparathyroidism. The VDR-mediated gene regulation, activated by its ligand 1,25-dihydroxyvitamin D3 (1,25-(OH)2D3), is governed by the recruitment of coactivators. Our hypothesis is that small molecules, with the ability to inhibit the interaction between VDR and certain coactivators, are able to selectively modulate VDR-mediated transcription. Our long term objective is the application these VDR-coactivator inhibitors to study the role of VDR-coactivator binding for specific VDR regulated genes. Ultimately, these molecules can be developed into new treatments for hypercalcemic hyperparathyroidism. No small molecule or non-peptide inhibitors are known for the VDR-coactivator interaction.
In a collaboration between the University of Wisconsin, Milwaukee and the NIH Chemical Genomics Center (NCGC) a HTS-compatible enzymatic assay was developed. The assay uses fluorescence polarization as its read-out to measure the inhibition between VDR and coregulator peptide SRC2-3 exerted by small molecules. This assay was used to screen the NIH Molecular Libraries Small Molecule Repository (MLSMR).
NIH Chemical Genomics Center [NCGC]
NIH Molecular Libraries Probe Centers Network [MLPCN]
Assay Submitter (PI): Alexander Arnold, University of Wilwaukee
Both solutions are kept at 4 deg C and protected from light and dispensed using a Kalypsys dispenser. Then 23nl of compounds and controls are added with Kalypsys pintool. […] Plate is centrifuged at 1000 RPM for 15 seconds to remove any residual bubbles. The plate is then incubate at ambient room temperature for 2 hours.
On the % scale 0 is the no-effect control and ±100 the full control effect; potency means the concentration at half of the fitted maximal effect.

Row | SMILES | Potency | max response, negative = inhibition
1 | COc1ccc(N(C(=O)CCl)C(C(=O)NCCc2ccccc2)c2cccs2)cc1Cl (stereo not drawn) | inconclusive: 89.1 µM [inhibitor, single point] | –
2 | O=C1C(c2ccccn2)=[N+]([O-])c2ccccc21 | active: 12.6 µM | –
3 | Fc1cccc(/C=C2\CCCC3=C2NC(=S)NC3c2cccc(F)c2)c1 (stereo not drawn) | active: 79.4 µM | –
4 | CCc1cc(C(=O)c2ccccc2)c(N)s1 | inconclusive: 8.91 µM [inhibitor, partial curve, poor fit] | –
5 | COc1ccc(N2CCN(C(c3ccccc3)c3sc4nc(C)nn4c3O)CC2)cc1 (stereo not drawn) | inconclusive: 100 µM [inhibitor, partial curve, poor fit] | –
6 | CCN(CC)C(=O)CN1C(=O)C2(OCC(C)(C)CO2)c2ccccc21 | – | inactive: -23.9%
7 | N#CC1=C(S)N(c2ccc(F)cc2)C(c2ccco2)NC1=O (stereo not drawn) | inconclusive: 31.6 µM [inhibitor, full curve, poor fit] | –
8 | O=C(O)CN1C(=O)/C(=C\c2cccc(OCc3ccccc3F)c2)SC1=S | inconclusive: 56.2 µM [inhibitor, partial curve, poor fit] | –
9 | CCO[C@H]1OC(C(=O)NCc2ccccc2)=C[C@@H](c2cn(C(C)=O)c3ccccc23)[C@@H]1CCCO | inconclusive: 10 µM [inhibitor, partial curve, poor fit] | –
10 | O=[N+]([O-])c1cc(/C=N/N2CCN(Cc3ccccc3)CC2)ccc1Cl | – | inactive: 16.6%
11 | O=C(NCC(c1ccco1)N1CCc2ccccc2C1)C(=O)Nc1ccc(F)cc1F (stereo not drawn) | – | inactive: -6.46%
12 | Cc1ccc(C)c(SCC(=O)OCC(=O)Nc2ncc(C(F)(F)F)cc2Cl)c1 | – | inactive: -3.01%
13 | CN(Cc1ccc([N+](=O)[O-])cc1)c1ccccc1 | inconclusive: 100 µM [inhibitor, single point] | –
14 | CCCCCC(=O)Nc1sc(C)c(C)c1C#N | inconclusive: 70.8 µM [inhibitor, single point] | –
15 | O=C(c1cccc(S(=O)(=O)N2CCOCC2)c1)N(CCO)Cc1ccccc1 | inconclusive: 35.5 µM [inhibitor, partial curve, poor fit] | –
16 | O=C(O)CN1C(=O)/C(=C\C(Br)=C\c2ccccc2)SC1=S | active: 35.5 µM | –
17 | Cc1c(Cl)cccc1NC(=S)NCc1cccn1C | inconclusive: 11.2 µM [inhibitor, full curve, poor fit] | –
18 | COc1ccc(N2C(=O)CC(Sc3ccccc3C(=O)O)C2=O)c([N+](=O)[O-])c1 (stereo not drawn) | – | inactive: -36.2%
19 | CCC(C)C(=O)Nc1nc(-c2ccc3c(c2)NC(=O)CO3)cs1 (stereo not drawn) | inconclusive: 15.8 µM [inhibitor, partial curve] | –
20 | COc1cccc(C(=O)N(Cc2sccc2C)C2CCS(=O)(=O)C2)c1 (stereo not drawn) | – | inactive: -1.16%
21 | CCOc1ccc(S(=O)(=O)N(C)c2ccc(OCC(=O)Nc3nc4ccccc4s3)cc2)cc1 | – | inactive: 1.77%
22 | Nc1sc2c(c1C(=O)c1ccccc1)CCCC2 | inconclusive: 89.1 µM [inhibitor, single point] | –

Row | SMILES | Potency | max response, negative = inhibition
23 | CCOC(=O)c1ccc(NC(=O)c2c(NCc3cccs3)sc3c2CCCCC3)cc1 | inconclusive: 35.5 µM [inhibitor, single point] | –
24 | CCN1CCN(CCOc2ccc(Br)cc2C)CC1 | inconclusive: 89.1 µM [inhibitor, partial curve, poor fit] | –
25 | C/C(=N/NC(=O)Cc1cccs1)c1ccco1 | inconclusive: 56.2 µM [inhibitor, partial curve, poor fit] | –
26 | Cc1ccccc1Nc1c(-c2cccnc2)nc2ccc(Br)cn12 | – | inactive: -20.8%
27 | COC(=O)c1ccc(COC(=O)c2ccc(SC)cc2OC)cc1 | inconclusive: 39.8 µM [inhibitor, single point] | –
28 | O=C(O)c1ccccc1/C=N/n1c(C2CCCCC2)n[nH]c1=S | inconclusive: 79.4 µM [inhibitor, partial curve, poor fit] | –
29 | COc1ccnc(CSC(N)=Nc2cccc(C(F)(F)F)c2)c1 | inconclusive: 28.2 µM [inhibitor, partial curve, poor fit] | –
30 | Cc1c(OC(C)C(=O)O)ccc2c(-c3ccccc3)cc(=O)oc12 (stereo not drawn) | – | inactive: 7.4%
31 | CN(C)c1ccc(N=Cc2cccn2C)cc1 | inconclusive: 0.708 µM [inhibitor, full curve, poor fit] | –
32 | S=c1[nH]c2ccccc2n1CCOc1ccccc1 | inconclusive: 89.1 µM [inhibitor, partial curve, poor fit] | –
33 | Oc1ccc2c(c1)OCC1(O)Cc3cc(O)c(O)cc3C21 (stereo not drawn) | active: 50.1 µM and active: 79.4 µM | –
34 | COc1ccccc1-n1cc(-c2ccc(Br)cc2)[nH]c1=S | inconclusive: 20 µM [inhibitor, partial curve, poor fit] | –
35 | FC(F)(F)c1nnc(-c2ccccc2)nc1Sc1ccc(Cl)cc1 | active: 70.8 µM | –
36 | c1cc2c3c(cccc3c1)NC(c1ccc3c(c1)OCO3)N2 | inconclusive: 63.1 µM [inhibitor, partial curve, poor fit] | –
37 | CC(C)(C)N1CSC(=S)N(Cc2ccccc2)C1 | inconclusive: 56.2 µM [inhibitor, partial curve, poor fit] | –
38 | COc1cccc(NC(=O)c2cc3c(=O)n4ccccc4nc3n(CC(C)C)c2=N)c1 | – | inactive: 0.915%
39 | CCCc1cc(=O)[nH]c(SCC(=O)c2ccc3c(c2)NC(=O)CO3)n1 | inconclusive: 2 µM [inhibitor, partial curve] | –
40 | Cc1ccccc1CN1[C@@H](CC2CCCCC2)COCCS1(=O)=O | inconclusive: 89.1 µM [inhibitor, single point] | –
41 | COc1ccc(-c2nsc3c(SCc4ccccc4)ncnc23)cc1 | inconclusive: 44.7 µM [inhibitor, partial curve, poor fit] | –
42 | COc1ccc(NCc2nnc(SCC(=O)c3ccc(C)cc3)o2)cc1 | inconclusive: 79.4 µM [inhibitor, single point] | –
43 | CCOc1cc(/C=N/O)ccc1OCc1ccc([N+](=O)[O-])cc1 | inconclusive: 39.8 µM [inhibitor, full curve, poor fit] | –

Entries of single compounds as entered above.
`CCOC(=O)c1ccc(NC(=O)c2c(NCc3cccs3)sc3c2CCCCC3)cc1` reads Potency: inconclusive: 35.5 µM [inhibitor, single point]
`CCOc1cc(/C=N/O)ccc1OCc1ccc([N+](=O)[O-])cc1` reads Potency: inconclusive: 39.8 µM [inhibitor, full curve, poor fit]
`Cc1c(Cl)cccc1NC(=S)NCc1cccn1C` reads Potency: inconclusive: 11.2 µM [inhibitor, full curve, poor fit]
